Experimental data from PMC4491177, “Co-translational capturing of nascent ribosomal proteins by their dedicated chaperones” (Nature Communications, 2015).
No constants are given. Whether binding was seen depends on the method and setting. Binding seen in cells or lysates may run through a third protein. A result given as binding can be weak or reduced; the word gives no strength. Where a sequence is shown, tags or fusion partners need not be part of it.

Target: T1, ctRpl10(1–20)-(His)6 (Chaetomium thermophilum)
T1 sequence: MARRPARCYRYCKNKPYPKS
Experiment: pull-down; (His)6-tagged Rpl10 variant and Sqt1 variant co-expressed in E. coli from pETDuet-1; Ni-NTA agarose purification from the soluble extract; 50 mM Tris-HCl (pH 7.5), 200 mM NaCl, 1.5 mM MgCl2, 5% glycerol, 0.1% NP-40, 4 °C; imidazole eluate on SDS-PAGE, Coomassie and western blot

ctSqt1 (Chaetomium thermophilum)
binding: binds
